# Results reported in paper PMC11792487.
# The chains behind the UniProt entries cited, without tags or fusion partners. Where a name states a change or a piece, a line headed by the entry shows the natural chain unless it says otherwise.
# UniProt A0AAI7ZEA0: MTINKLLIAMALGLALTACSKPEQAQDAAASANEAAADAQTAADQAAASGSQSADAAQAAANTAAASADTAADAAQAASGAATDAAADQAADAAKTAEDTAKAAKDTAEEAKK
# No constants are given. Whether binding was seen depends on the method and setting. A result given as binding can be weak or reduced; the word gives no strength. Sequences can lack the tags named with a protein.
# Biological target: T1, MBP-TolB (TolB fused with maltose-binding protein) (Xanthomonas citri subsp. citri) (UniProt Q8PHV7)
# T1 sequence: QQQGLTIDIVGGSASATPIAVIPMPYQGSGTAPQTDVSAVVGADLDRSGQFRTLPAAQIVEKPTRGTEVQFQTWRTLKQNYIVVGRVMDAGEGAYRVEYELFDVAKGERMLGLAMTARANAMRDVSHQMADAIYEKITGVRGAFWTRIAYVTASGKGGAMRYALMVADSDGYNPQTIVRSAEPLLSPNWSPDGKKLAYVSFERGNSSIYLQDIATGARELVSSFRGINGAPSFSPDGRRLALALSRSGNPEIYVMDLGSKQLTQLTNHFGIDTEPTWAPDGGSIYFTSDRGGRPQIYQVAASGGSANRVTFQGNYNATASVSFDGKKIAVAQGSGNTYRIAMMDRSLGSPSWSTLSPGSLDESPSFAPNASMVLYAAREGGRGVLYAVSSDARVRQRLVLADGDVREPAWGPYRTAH
# Assay: pull-down; both purified
substance,measurement,value
GST-OMPXan (Xanthomonas-specific outer membrane protein XAC1347 fused with GST) (from UniProt A0AAI7ZEA0),binding,binds
